# Assay results as given in the supplement of paper PMC12067093, “Discovery and optimisation of a covalent ligand for TRIM25 and its application to targeted protein ubiquitination” (Chemical Science, 2025).
# Sequences of proteins named here, by UniProt entry; tags and fusion partners are left off. A change or cut given only in a name is not applied to a line headed by its entry.
# UniProt Q9UHB9: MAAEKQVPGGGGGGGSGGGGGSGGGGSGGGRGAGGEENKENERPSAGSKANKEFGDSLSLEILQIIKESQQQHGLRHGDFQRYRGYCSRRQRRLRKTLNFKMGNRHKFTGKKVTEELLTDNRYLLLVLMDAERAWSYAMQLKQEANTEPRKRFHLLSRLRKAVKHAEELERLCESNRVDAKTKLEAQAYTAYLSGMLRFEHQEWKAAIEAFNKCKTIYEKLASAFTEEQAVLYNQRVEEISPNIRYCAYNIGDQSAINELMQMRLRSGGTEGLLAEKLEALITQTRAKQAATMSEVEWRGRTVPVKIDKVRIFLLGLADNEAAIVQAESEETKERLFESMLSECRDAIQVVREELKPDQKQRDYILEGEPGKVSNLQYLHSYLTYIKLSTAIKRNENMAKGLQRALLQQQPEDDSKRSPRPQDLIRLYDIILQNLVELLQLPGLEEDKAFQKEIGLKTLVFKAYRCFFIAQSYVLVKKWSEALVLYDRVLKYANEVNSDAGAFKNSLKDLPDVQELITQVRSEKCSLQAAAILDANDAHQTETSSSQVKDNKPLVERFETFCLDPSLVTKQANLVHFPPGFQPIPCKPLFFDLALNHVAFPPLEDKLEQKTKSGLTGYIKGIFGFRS
# UniProt O60504: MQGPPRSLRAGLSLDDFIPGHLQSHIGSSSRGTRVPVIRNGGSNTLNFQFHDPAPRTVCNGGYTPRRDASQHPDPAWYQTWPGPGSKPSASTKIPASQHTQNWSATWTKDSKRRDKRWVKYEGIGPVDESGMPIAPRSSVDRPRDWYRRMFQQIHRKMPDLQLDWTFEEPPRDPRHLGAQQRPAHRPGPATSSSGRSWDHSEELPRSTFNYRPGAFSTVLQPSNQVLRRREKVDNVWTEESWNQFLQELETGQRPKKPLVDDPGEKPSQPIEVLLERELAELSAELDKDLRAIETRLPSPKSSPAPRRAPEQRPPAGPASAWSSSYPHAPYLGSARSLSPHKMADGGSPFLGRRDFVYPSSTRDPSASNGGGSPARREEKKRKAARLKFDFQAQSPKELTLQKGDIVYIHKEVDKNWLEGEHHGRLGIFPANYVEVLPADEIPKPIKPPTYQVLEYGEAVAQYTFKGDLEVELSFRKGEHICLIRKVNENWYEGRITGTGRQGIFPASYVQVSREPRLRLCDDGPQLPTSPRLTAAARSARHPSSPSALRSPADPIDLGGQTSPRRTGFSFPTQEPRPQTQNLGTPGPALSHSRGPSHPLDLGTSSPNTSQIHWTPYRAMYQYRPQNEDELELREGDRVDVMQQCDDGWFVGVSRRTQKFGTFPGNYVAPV
# UniProt P62316, whole entry, looked up: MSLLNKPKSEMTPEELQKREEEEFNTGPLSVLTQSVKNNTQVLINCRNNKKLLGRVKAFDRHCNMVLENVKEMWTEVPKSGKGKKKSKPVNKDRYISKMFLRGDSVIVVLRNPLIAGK
# UniProt P61011: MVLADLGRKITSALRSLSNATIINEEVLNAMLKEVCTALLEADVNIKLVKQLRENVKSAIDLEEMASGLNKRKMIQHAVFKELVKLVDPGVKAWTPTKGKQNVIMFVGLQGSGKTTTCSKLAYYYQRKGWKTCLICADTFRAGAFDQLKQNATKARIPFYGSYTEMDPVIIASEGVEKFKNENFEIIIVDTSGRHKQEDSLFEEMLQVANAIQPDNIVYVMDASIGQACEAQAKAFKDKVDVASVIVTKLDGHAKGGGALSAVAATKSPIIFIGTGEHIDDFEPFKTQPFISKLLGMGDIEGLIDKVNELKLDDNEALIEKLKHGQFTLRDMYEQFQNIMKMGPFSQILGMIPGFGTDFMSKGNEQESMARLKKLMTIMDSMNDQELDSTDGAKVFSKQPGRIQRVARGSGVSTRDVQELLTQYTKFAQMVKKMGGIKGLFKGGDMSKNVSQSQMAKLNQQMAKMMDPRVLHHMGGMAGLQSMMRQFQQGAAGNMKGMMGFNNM
# UniProt P62318, whole entry, looked up: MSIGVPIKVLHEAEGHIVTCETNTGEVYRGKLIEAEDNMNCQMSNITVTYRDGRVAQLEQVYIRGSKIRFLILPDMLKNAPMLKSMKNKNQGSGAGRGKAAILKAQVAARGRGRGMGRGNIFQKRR
# UniProt P08047, whole entry, looked up: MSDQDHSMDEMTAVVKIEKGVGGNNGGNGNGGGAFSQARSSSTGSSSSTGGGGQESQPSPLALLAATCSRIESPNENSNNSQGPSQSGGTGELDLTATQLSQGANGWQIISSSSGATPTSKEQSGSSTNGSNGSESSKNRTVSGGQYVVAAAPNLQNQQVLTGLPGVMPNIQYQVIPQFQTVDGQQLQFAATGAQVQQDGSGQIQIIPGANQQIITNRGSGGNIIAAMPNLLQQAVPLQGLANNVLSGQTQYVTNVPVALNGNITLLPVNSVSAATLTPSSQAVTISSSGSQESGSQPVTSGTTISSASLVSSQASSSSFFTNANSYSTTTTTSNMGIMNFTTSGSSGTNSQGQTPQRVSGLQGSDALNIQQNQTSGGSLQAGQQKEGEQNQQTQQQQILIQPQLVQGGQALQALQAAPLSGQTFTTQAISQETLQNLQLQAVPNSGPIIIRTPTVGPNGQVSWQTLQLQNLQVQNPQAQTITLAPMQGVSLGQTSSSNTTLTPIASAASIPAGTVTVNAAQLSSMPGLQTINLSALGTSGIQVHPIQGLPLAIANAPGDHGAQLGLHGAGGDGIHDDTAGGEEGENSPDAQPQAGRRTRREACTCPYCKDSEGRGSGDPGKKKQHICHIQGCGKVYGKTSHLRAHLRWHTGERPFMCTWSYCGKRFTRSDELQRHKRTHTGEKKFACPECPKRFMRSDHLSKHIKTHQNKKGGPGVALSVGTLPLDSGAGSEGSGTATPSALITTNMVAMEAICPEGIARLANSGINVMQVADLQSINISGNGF
# UniProt Q92673: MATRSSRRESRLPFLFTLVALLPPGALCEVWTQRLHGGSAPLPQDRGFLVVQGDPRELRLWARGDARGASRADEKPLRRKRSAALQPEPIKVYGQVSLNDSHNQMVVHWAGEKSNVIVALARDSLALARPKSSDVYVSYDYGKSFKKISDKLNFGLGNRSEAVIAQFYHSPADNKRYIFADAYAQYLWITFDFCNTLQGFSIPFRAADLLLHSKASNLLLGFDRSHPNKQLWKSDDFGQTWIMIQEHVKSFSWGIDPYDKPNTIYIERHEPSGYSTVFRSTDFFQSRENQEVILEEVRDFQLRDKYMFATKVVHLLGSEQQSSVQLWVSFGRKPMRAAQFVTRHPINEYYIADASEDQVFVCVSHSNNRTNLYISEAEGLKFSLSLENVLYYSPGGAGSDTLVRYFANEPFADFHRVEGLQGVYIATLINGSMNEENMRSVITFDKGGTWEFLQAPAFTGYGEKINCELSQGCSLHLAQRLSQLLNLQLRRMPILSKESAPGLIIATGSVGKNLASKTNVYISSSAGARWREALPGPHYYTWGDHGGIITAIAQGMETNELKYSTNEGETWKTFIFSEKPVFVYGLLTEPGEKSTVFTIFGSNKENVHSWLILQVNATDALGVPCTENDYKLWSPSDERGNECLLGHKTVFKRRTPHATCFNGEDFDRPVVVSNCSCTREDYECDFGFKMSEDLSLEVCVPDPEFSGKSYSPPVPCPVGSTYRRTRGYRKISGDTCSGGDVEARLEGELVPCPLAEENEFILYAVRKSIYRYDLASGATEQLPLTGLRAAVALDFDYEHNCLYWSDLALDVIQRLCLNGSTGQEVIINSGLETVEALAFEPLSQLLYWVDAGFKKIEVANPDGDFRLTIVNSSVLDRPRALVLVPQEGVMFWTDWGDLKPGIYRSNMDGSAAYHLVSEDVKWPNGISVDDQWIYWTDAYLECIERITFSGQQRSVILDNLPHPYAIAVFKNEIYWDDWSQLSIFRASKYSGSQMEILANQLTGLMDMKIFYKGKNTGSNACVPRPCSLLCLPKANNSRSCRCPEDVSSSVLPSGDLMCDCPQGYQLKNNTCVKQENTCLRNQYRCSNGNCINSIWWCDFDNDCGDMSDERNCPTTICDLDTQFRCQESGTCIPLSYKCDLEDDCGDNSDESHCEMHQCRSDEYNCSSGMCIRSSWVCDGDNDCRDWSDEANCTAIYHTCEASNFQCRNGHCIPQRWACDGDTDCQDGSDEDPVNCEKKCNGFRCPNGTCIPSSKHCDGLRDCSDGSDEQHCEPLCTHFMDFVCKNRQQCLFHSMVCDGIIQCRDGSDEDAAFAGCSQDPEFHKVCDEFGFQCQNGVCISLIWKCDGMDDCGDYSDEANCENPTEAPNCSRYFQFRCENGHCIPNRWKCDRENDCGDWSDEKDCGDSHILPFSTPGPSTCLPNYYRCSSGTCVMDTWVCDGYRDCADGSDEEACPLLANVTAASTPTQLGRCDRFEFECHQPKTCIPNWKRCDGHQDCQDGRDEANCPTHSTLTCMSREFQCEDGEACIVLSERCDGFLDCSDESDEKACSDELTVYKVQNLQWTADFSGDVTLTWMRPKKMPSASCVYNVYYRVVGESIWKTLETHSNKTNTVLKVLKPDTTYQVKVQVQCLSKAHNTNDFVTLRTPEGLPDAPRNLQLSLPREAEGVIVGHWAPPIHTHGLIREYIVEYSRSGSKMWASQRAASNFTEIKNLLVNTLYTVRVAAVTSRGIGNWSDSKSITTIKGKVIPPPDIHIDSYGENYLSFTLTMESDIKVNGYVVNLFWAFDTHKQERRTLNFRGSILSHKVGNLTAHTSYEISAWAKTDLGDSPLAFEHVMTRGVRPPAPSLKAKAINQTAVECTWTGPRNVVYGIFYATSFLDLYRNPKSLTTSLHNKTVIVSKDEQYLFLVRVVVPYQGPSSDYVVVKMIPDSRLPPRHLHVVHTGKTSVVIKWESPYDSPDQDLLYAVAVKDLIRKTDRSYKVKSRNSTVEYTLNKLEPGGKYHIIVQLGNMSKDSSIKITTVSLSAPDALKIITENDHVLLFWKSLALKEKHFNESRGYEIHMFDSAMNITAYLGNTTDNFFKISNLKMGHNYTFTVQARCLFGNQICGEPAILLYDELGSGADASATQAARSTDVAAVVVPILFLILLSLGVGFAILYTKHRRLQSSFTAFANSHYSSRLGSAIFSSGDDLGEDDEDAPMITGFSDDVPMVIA
# UniProt P09132: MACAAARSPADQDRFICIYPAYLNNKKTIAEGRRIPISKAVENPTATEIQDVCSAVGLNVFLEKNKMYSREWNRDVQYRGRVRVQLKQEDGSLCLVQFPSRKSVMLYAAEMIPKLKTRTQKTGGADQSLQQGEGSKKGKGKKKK
# UniProt Q8N5C6: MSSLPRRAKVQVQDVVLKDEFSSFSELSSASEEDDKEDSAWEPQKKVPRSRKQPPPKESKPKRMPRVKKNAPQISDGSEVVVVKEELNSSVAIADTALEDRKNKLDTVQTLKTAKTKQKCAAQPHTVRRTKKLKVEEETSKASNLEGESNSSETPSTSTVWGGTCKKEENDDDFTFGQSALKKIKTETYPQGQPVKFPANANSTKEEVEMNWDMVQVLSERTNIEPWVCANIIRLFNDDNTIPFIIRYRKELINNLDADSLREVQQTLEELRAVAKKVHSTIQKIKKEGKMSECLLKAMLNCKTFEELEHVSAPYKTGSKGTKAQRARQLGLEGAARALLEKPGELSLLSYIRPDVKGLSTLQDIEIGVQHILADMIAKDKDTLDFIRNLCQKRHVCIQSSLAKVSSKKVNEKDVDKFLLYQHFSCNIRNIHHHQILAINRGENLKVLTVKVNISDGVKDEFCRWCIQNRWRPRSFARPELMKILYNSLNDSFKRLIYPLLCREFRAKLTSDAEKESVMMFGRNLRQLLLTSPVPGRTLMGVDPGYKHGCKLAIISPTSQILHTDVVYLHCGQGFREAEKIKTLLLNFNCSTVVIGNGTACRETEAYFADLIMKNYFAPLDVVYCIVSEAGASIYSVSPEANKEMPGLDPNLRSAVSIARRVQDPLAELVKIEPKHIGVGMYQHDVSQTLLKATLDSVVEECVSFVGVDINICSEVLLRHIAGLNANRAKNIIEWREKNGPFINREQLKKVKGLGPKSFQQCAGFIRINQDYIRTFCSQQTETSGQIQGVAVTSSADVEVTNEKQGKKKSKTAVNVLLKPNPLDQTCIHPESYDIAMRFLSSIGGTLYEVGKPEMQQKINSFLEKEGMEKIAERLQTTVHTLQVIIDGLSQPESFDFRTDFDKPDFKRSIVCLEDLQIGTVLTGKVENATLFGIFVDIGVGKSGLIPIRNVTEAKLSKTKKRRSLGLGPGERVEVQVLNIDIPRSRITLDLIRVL
# UniProt P30626: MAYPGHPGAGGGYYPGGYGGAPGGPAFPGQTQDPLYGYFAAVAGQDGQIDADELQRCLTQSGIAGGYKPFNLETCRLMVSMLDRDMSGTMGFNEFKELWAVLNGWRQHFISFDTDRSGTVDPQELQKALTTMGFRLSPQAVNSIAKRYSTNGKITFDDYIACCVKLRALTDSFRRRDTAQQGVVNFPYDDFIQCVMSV
# UniProt P00441, whole entry, looked up: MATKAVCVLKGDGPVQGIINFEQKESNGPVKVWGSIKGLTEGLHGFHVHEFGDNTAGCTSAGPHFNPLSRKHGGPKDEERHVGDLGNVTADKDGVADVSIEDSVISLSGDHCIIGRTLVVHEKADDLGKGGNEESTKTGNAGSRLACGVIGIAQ
# Some of the results follow.
# Compound: CC1Cc2ccccc2N1C(=O)C1CCCN(C1)C(=O)CCl (mixture of isomers) [TRIM25 ligand 11 (diastereomer mixture)]
# Assay: probe-labelled cysteine peptide fold change vs DMSO (competition) (log2 fold change); higher = less target engagement (more negative = stronger competition)
# Details: 50 µM; THP-1; incubation time: 4 h
# 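Also: competitive chemoproteomic profiling in live THP-1 cells with an iodoacetamide desthiobiotin (IA-DTB) probe, comparing probe-labelled peptide intensities in compound-treated cells against DMSO-treated controls.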
row,Target,probe-labelled cysteine peptide fold change
1,SPTLC1_O15269_133_YGVGTCGPR (UniProt O15269),-0.0294
2,SPATS2L_Q9NUQ6_367_TPCSSLLPLLNAHAATSGK (UniProt Q9NUQ6),-0.185
3,SRP68_Q9UHB9_525_CSLQAAAILDANDAHQTETSSSQVK (UniProt Q9UHB9),-0.212
4,SRM_P19623_205+209_EDGVLCCQGECQWLHLDLIK (UniProt P19623),0.287
5,SORBS3_O60504_645_EGDRVDVMQQCDDGWFVGVSR (UniProt O60504),-0.18
6,SNX9_Q9Y5X1_502_GFLGCFPDIIGTHK (UniProt Q9Y5X1),0.0871
7,SPAG5_Q96R06_420_HSTSETEQLLCGRPPDLTALSR (UniProt Q96R06),-0.213
8,SNRPD2_P62316_46_NNTQVLINCR (UniProt P62316),0.0337
9,SRP54_P61011_136_TCLICADTFR (UniProt P61011),0.0326
10,SNRPD3_P62318_41_LIEAEDNMNCQMSNITVTYRDGR (UniProt P62318),-0.109
11,SP1_P08047_633_QHICHIQGCGK (UniProt P08047),0.127
12,SORL1_Q92673_1158_CDLEDDCGDNSDESHCEMHQCR (UniProt Q92673),-0.111
13,SPEN_Q96T58_1238_MDHVDFDICTK (UniProt Q96T58),-0.25
14,SNX5_Q9Y5X3_346+347_LAEAHQQECCQK (UniProt Q9Y5X3),0.0319
15,SRP19_P09132_3_ACAAAR (UniProt P09132),0.533
16,SPATA5L1_Q9BVQ7_104_LLLVPCPPLRR (UniProt Q9BVQ7),0.126
17,SRBD1_Q8N5C6_120_CAAQPHTVR (UniProt Q8N5C6),-0.0692
18,SRI_P30626_194_RDTAQQGVVNFPYDDFIQCVMSV (UniProt P30626),-0.0123

row,Target,probe-labelled cysteine peptide fold change
1,SRP19_P09132_94_QEDGSLCLVQFPSRK (UniProt P09132),-0.0491
2,SPCS2_Q15005_17+26_SGGSGGCSGAGGASNCGTGSGR (UniProt Q15005),-0.603
3,SPC25_Q9HBM1_27_STDTSCQMAGLR (UniProt Q9HBM1),-0.08
4,SOD1_P00441_112_DGVADVSIEDSVISLSGDHCIIGR (UniProt P00441),-0.171
5,SPECC1_Q5M775_633_EICDHQAEQLSR (UniProt Q5M775),-0.0553
6,SPTAN1_Q13813_1454_DCEQAENWMAAR (UniProt Q13813),-0.0112
7,SNX27_Q96L92_456_LHACTEEGQLENQVIAFEWDEMQR (UniProt Q96L92),0.0672
8,SNUPN_O95149_356_GSSHSPDHPGCLMEN (UniProt O95149),-0.656
9,SP1_P08047_606_EACTCPYCK (UniProt P08047),0.121
10,SOD1_P00441_7_AVCVLK (UniProt P00441),0.117
11,SON_P18583-2_2133_DLMANATCFR (UniProt P18583),-0.0517
12,SORL1_Q92673_1302_QQCLFHSMVCDGIIQCR (UniProt Q92673),0.112
13,SNX7_Q9UNH6_325_VECANNALK (UniProt Q9UNH6),0.125
14,SPTBN1_Q01082_1389_AELFTQSCADLDK (UniProt Q01082),-0.0744
15,SRBD1_Q8N5C6_571_LAIISPTSQILHTDVVYLHCGQGFR (UniProt Q8N5C6),0.216
16,SP100_P23497_266+270_EMPCPLPCDEESPEAELHNHGIQINSCSVR (UniProt P23497),-0.458
17,SPRYD3_Q8NCJ5_272_CYIALGLAR (UniProt Q8NCJ5),0.142

# 2 entries drawn at random from those above:
row,Target,probe-labelled cysteine peptide fold change
9,SRP54_P61011_136_TCLICADTFR (UniProt P61011),0.0326
10,SNRPD3_P62318_41_LIEAEDNMNCQMSNITVTYRDGR (UniProt P62318),-0.109
